Results are given in words; binding and its absence hold for the method and conditions named. Binding seen in cells or lysates may run through a third protein. Some binding calls cover weakened binding; strength is not graded here.
T1: tyrosine 3-monooxygenase/tryptophan 5-monooxygenase activation protein eta (YWHAH) (human (endogenous in OSRC-2 and 786-O)) (UniProt Q04917)
T1 sequence: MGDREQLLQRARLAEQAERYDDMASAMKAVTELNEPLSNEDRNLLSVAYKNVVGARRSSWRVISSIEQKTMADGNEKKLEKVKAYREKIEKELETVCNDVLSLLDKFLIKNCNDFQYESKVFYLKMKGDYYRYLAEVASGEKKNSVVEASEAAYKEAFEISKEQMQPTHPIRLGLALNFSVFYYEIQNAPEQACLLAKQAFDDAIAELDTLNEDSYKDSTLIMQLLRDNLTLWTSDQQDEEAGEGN

By UniProt entry, the sequences of proteins in these tests, tags left out.
UniProt P46937: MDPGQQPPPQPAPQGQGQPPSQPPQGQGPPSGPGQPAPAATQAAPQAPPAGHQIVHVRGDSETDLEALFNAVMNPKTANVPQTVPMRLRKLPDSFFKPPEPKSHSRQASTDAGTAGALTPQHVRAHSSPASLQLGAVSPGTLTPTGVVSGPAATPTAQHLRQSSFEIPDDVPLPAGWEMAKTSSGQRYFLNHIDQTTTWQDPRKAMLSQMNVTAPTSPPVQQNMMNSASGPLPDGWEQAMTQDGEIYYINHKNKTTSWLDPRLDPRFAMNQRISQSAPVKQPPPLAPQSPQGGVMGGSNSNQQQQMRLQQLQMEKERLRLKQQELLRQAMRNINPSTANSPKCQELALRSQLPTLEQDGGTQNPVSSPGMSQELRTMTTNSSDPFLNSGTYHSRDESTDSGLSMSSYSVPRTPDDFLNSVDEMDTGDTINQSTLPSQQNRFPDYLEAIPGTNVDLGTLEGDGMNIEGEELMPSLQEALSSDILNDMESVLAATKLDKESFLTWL

B1: tyrosine 3-monooxygenase/tryptophan 5-monooxygenase activation protein eta (YWHAH) (protein, UniProt Q04917 1-246)
chain: T1 sequence

What was measured:
[1] = target: T1, tyrosine 3-monooxygenase/tryptophan 5-monooxygenase activation protein eta (YWHAH) (human (endogenous in OSRC-2 and 786-O)); test: co-IP; endogenous proteins in nuclear extracts of OSRC-2 and 786-O cells; anti-YWHAH and anti-YAP antibodies, western blot
[2] = target: T1, tyrosine 3-monooxygenase/tryptophan 5-monooxygenase activation protein eta (YWHAH) (human (endogenous in OSRC-2 and 786-O)); test: co-IP; endogenous proteins in whole-cell RIPA lysates of OSRC-2 and 786-O cells; 5 µg anti-YWHAH, anti-YAP or IgG antibody at 4 °C overnight, protein A/G magnetic beads 2 h at 4 °C, western blot
[3] = target: Yes1-associated transcriptional regulator (YAP) (human (endogenous in OSRC-2 and 786-O)) (UniProt P46937); test: co-IP; endogenous proteins in nuclear extracts of OSRC-2 and 786-O cells; anti-YWHAH and anti-YAP antibodies, western blot
[4] = target: Yes1-associated transcriptional regulator (YAP) (human (endogenous in OSRC-2 and 786-O)) (UniProt P46937); test: co-IP; endogenous proteins in whole-cell RIPA lysates of OSRC-2 and 786-O cells; 5 µg anti-YWHAH, anti-YAP or IgG antibody at 4 °C overnight, protein A/G magnetic beads 2 h at 4 °C, western blot

| Molecule | binding [1] | binding [2] | binding [3] | binding [4] |
| --- | --- | --- | --- | --- |
| Yes1-associated transcriptional regulator (YAP) (from UniProt P46937 1-504) | binds | binds |  |  |
| B1 |  |  | binds | binds |

From publication PMC10362694
